Reference: US20120213826A1, “Use of Pro-Inflammatory Compounds for Promoting Bone Formation” (Imperial Innovations Limited, priority 2009, published 2012)

Tested on: muscle-derived stromal cells (MDSC)
Experiment: MDSC migration through a transwell membrane
Type: cell-based, human
Conditions: Example 3; FIG. 27B versus FIG. 26D
Experimental: Migration of 1×10^4 MDSC through an 8 μm pore transwell membrane over 36 hours, in response to fracture supernatant with the addition of AbTNF-α, AbIL-6 and AbIL-1β. The IgG^1 immunoglobulin was used as the antibody control. B: Migration in response to rhTNF-α, rhIL-6 and rhIL-1β in human serum-containing media. Results represent change in cell number, expressed as a percentage of the supernatant, or media only control. Each experiment was performed 3 times (n=3) using 3 fracture supernatants (in A). Results represent mean of 3 experiments ±SEM. *: P<0.05; **: P<0.01; ***: P<0.001; 1-way ANOVA with Bonferroni's multiple comparison test.
MDSC must be recruited to the fracture site from adjacent muscle. Next we assessed the efficacy of the pro-inflammatory cytokines in attracting MDSC in vitro using a transwell assay. 1×10^4 MDSC were seeded onto a 8 μm transwell membrane in serum free media. […]
500 μl serum free media was added to each well of a 24 well plate. […] The number of cells present on the underside of the transwell membrane in any random field was counted 3 times and the mean calculated. Cell migration was calculated against the supernatant or human serum-containing (control) media and the number expressed as a percentage relative to the control media.

IL-6: pro-inflammatory cytokine, recombinant human IL-6
optimal concentration for migration relative to optimal concentration for osteogenic differentiation / highest ALP expression (fold less): 1000 fold

TNFα
optimal concentration for migration relative to optimal concentration for osteogenic differentiation / highest ALP expression (fold less): 1000 fold
